This series has as its system MMP-11. Description: SERS nanosensor (aptamer strand displacement). The settings on record: 100 ng/mL, AuNS-2 with DNA2/DTNB present; DNA1 3' ThioMC3-D; duplex annealed in 8 mM phosphate, 0.8 mM MgCl2, 20 mM NaCl; cell supernatant assay at 37 C for 2 h; recombinant protein; label: 13-nm gold nanosphere via DNA1 3' thiol.

Construct, isoform or probe ends are uncertain for at least one entry. A negative result means that nothing was seen under these conditions.

On to “TCGTATGGCACGGGGTTGGTGTTGGGTTGG / GGTGTGCCATACGAAA [MMP-9 aptamer (annealed to DNA1 on AuNS-1)]”, for which the binding result is “no binding”.

For the origin of these results see article PMC10798921, “Target-induced hot spot construction for sensitive and selective surface-enhanced Raman scattering detection of matrix metalloproteinase MMP-9”.
